# According to PubChem BioAssay AID1688 (National Center for Advancing Translational Sciences (NCATS), 2009):
# Among all 220,000 compounds or so, about 2,400 (1.1%) were called active. Inconclusive results, whose numbers are uncertain, are shown with a selection of clear calls. The call rests on the fitted dose curve; in most records, active means well fitted inhibition curve with a large enough effect; inconclusive means small, poorly fitted or top-dose-only effect, or effect the other way; inactive means no such curve, though single readings can be large or run the other way. Potencies beside an inconclusive call are fits to weak or partial responses and may not hold up.
# Assay: qHTS Multiplex Assay to Identify Dual Action Probes in a Cell Model of Huntington: Aggregate Formation (GFP); further: nearly all actives have a fitted effect of over 60% in size
# Conditions: PC12 HttQ103-GFP aggregates, Acumen cytometry, 40 h; activity change, negative = inhibition: at 46.1 µM (top of the series) unless noted
# Summary of the method: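 Compounds (qHTS titration) were added to PC12 cells expressing an ecdysone-driven HTT exon 1 Q103–GFP fusion after induction with 100 nM tebufenozide. Aggregate formation was measured as GFP objects in cell lysates.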
# On the % scale 0 is the no-effect control and ±100 the full control effect; potency means the concentration at half of the fitted maximal effect.
Structure (SMILES),Potency,"activity change, negative = inhibition"
COCCN(CCOC)C(=O)c1ccc(SCc2ccc(C)cc2)c([N+](=O)[O-])c1,"inconclusive: 35.5 µM [inhibitor, single point]",
CCCC(O)(CCC)C(=O)NN(C(=O)CCl)c1ccccc1,"inconclusive: 35.5 µM [inhibitor, single point]",
CCOC(=O)CNC(=O)CSc1ncnc2c1nnn2-c1ccc(F)cc1,,inactive: 2.9%
COc1ccc([N+](=O)[O-])c(S(=O)(=O)c2ccc(Cl)cc2)n1,"inconclusive: 4.47 µM [inhibitor, single point]",
N#C/C(=C\c1ccco1)C(=O)NCC1CCCO1 (configuration not stated),,inactive: -22.6%
O=C(CSc1ncnc2c1nnn2Cc1ccc(F)cc1)NC1CCCC1,"inconclusive: 3.98 µM [activator, full curve]",
Cc1ccc(C(=O)C[n+]2cc(Br)cc(Br)c2)cc1[N+](=O)[O-],,inactive: 32.8%
Cc1ccccc1N=C1N=C(N)c2ccccc21,,inactive: -2.68%
COCCN(C(=O)CSc1nnc2cc(C)c3ccccc3n12)c1c(N)n(Cc2ccccc2)c(=O)[nH]c1=O,"inconclusive: 35.5 µM [activator, single point]",
CN(Cc1ccccc1)S(=O)(=O)c1ccc2c(c1)OCCO2,"inconclusive: 28.2 µM [inhibitor, partial curve, poor fit]",
O=C(Nc1nccs1)c1cc2c(s1)CCCCC2,active: 12.6 µM,
CC(C)(C)C1CCC(C(=O)OCC(=O)Nc2ccc3[nH]c(=O)[nH]c3c2)CC1 (configuration not stated),,inactive: 19.8%
Cc1ccc2[nH]c3c(N4CCc5ccccc5C4)ncnc3c2c1,active: 3.55 µM,
Cc1ccccc1CN1C(=O)C2(OCCCO2)c2ccccc21,"inconclusive: 35.5 µM [activator, partial curve]",
COCCn1c(N)c(NCc2ccccc2)c(=O)n(CC(=O)Nc2cc(C)ccc2C)c1=O,,inactive: 0.804%
CCn1c(SCC(=O)N2CCc3ccccc3C2)nc2sc(C)c(C)c2c1=O,"inconclusive: 7.94 µM [inhibitor, partial curve]",
COC(=O)c1sc2cc(=O)n(-c3cccc(C(F)(F)F)c3)nc2c1O,,inactive: -8.34%
COc1ccc(Nc2ccc(Nc3ccc(OC)cc3)nn2)cc1,"inconclusive: 2.24 µM [inhibitor, partial curve]",
CC(=O)NC1(c2ccc(F)cc2)CCN(C(=O)Nc2ccc(F)cc2F)CC1,active: 3.16 µM,
O=C1S/C(=C\c2ccc(O)c([N+](=O)[O-])c2)C(=O)N1c1ccccc1Cl,,inactive: -4.74% [at 9.22 µM]
CCN(CC)S(=O)(=O)c1ccc2c(c1)nc(SCC(=O)NC1CC1)n2-c1ccccc1OC,"inconclusive: 5.62 µM [activator, single point]",
CCOC(=O)c1ccc(NC(=O)Cn2nnc(-c3ccccc3)n2)cc1,"inconclusive: 35.5 µM [inhibitor, single point]",
CC1(C)O[C@@H]2C[C@H]3[C@@H]4CCC5=CC(=O)C=C[C@]5(C)[C@H]4C(O)C[C@]3(C)[C@]2(C(=O)CO)O1 (some centres not stated),,inactive: 11%
CS(=O)(=O)N1CCc2cc(S(=O)(=O)Nc3ccc4oc5c(c4c3)CCCC5)ccc21,"inconclusive: 35.5 µM [inhibitor, single point]",
CCc1nc2cc(Cl)c(Cl)cc2[nH]1,active: 11.2 µM,
COc1ccc(-c2nnc3ccc(SC)nn23)cc1,"inconclusive: 35.5 µM [inhibitor, single point]",

# Random excerpt: 4 records from the list
Structure (SMILES),Potency,"activity change, negative = inhibition"
CC(C)(C)C1CCC(C(=O)OCC(=O)Nc2ccc3[nH]c(=O)[nH]c3c2)CC1 (configuration not stated),,inactive: 19.8%
COc1ccc(Nc2ccc(Nc3ccc(OC)cc3)nn2)cc1,"inconclusive: 2.24 µM [inhibitor, partial curve]",
CS(=O)(=O)N1CCc2cc(S(=O)(=O)Nc3ccc4oc5c(c4c3)CCCC5)ccc21,"inconclusive: 35.5 µM [inhibitor, single point]",
Cc1ccccc1N=C1N=C(N)c2ccccc21,,inactive: -2.68%

# (continued)

Structure (SMILES),Potency,"activity change, negative = inhibition"
Cc1c(CCOC(=O)CC23CC4CC(CC(C)(C4)C2)C3)sc[n+]1Cc1ccc([N+](=O)[O-])cc1,"inconclusive: 12.6 µM [activator, partial curve]",
COc1ccccc1C1C=C(c2ccccc2)Nc2nnnn21 (configuration not stated),,inactive: 12.7%
O=S(=O)(Nc1cccnc1)c1ccc(C2CCCCC2)cc1,active: 2.82 µM,
CC(C)C(NC(=O)C12CC3CC(CC(C3)C1)C2)C(=O)O (configuration not stated),,inactive: -0.319%
CCOC(=O)C1=C(c2ccccc2)N=c2s/c(=C\c3cc(OC)c(OC)c(OC)c3)c(=O)n2C1c1cccs1 (configuration not stated),,inactive: -10.5%
Cc1cc2cc(CN(Cc3cccs3)S(=O)(=O)c3ccc4c(c3)OCCO4)c(=O)[nH]c2cc1C,,inactive: -17.2%
O=S(=O)(NCCOCC(F)(F)C(F)F)c1ccc2oc3ccccc3c2c1,"inconclusive: 12.6 µM [inhibitor, single point]",
COCC(=O)Nc1cc(Cl)ccc1C,,inactive: 12.5%
COc1ccc(CCNC(=O)CN(c2ccc(OC)c(OC)c2)S(C)(=O)=O)cc1OC,"inconclusive: 3.55 µM [inhibitor, single point]",
CCOC(=O)Cc1nnc2c(Nc3ccccc3F)nc3nonc3n12,active: 15.8 µM,
O=C(N/C(=C\c1ccccc1)C(=O)N1CCN(CCO)CC1)c1ccccc1,,inactive: -15.3%
CC/C=C/C(=O)N1CC2(CC(c3cccc(NC(=O)CC)c3)=NO2)C[C@H]1C(N)=O (some centres not stated),"inconclusive: 1.26 µM [inhibitor, single point]",
O=C(c1ccccc1)c1nc2ccccc2[nH]c1=O,"inconclusive: 35.5 µM [inhibitor, single point]",
COc1cc(/C=N/NC(=O)CSc2ccccn2)ccc1OC(C)C,,inactive: 16.6% [at 9.22 µM]
c1nc(NC2CCCCCC2)c2[nH]cnc2n1,"inconclusive: 35.5 µM [inhibitor, single point]",
CCOc1ccc(-c2csc(N)c2C(=O)OC)cc1,,inactive: -1.17%
O=C(O)CCc1nn2c3ccccc3nc2n(-c2ccccc2)c1=O,,inactive: -2.5%
CC1(C)C(=O)C2(CCCC2)C(=O)OC1c1ccco1 (configuration not stated),,inactive: -2.53%
CCOc1ccc(NS(=O)(=O)c2cc(NC(=O)c3ccc(C)cc3)ccc2Cl)cc1,"inconclusive: 35.5 µM [inhibitor, single point]",
CN1CCN(Cc2cc(Cl)c3cccnc3c2OC(=O)c2cccs2)CC1,"inconclusive: 15.8 µM [inhibitor, partial curve]",
CC1Cc2ccccc2N1C(=O)c1ccc(N2CCCCC2)c([N+](=O)[O-])c1 (configuration not stated),"inconclusive: 35.5 µM [inhibitor, single point]",
Fc1ccc(CN2C3=NCCN3c3ccccc32)cc1,"inconclusive: 1.26 µM [activator, single point]",
O=C(Cc1sc(Nc2ccccc2)nc1-c1ccccc1)NCc1ccccn1,,inactive: -14%
O=c1[nH]c(=O)c2nc3c4ccccc4c4ccccc4c3nc2[nH]1,,inactive: 22% [at 9.22 µM]
CCc1ccc(S(=O)(=O)NCc2cn3cccc(C)c3n2)s1,"inconclusive: 7.94 µM [inhibitor, partial curve]",
FC(F)(F)c1cnc(NNC(=S)Nc2ccccc2Cl)c(Cl)c1,active: 22.4 µM,

Structure (SMILES),Potency,"activity change, negative = inhibition"
O=C(NCc1ccco1)c1ccc2c(=O)n(CC3CCCO3)c(=S)[nH]c2c1 (configuration not stated),,inactive: -0.465%
CC(=O)N1CC[n+]2c(-c3ccc(Cl)cc3)csc21,,inactive: 29.1%
Cc1csc(NC(=O)c2cc3c(C)nn(Cc4ccccc4Cl)c3s2)n1,"inconclusive: 10 µM [inhibitor, partial curve]",
Cn1c(SCC(=O)c2ccc(F)cc2)nc2cccnc21,"inconclusive: 35.5 µM [inhibitor, single point]",
CCCC(=O)NC(c1ccc(OC)cc1)c1ccc2cccnc2c1O (configuration not stated),"inconclusive: 0.631 µM [inhibitor, single point]",
COc1nc(N(C)C)nc(N(OC)S(=O)(=O)c2ccccc2Cl)n1,,inactive: 20.9% [at 9.22 µM]
Cc1nc(C)c(-c2csc(NCc3ccco3)n2)s1,,inactive: -22.5%
CCC(Oc1ccccc1)C(=O)Nc1ncc([N+](=O)[O-])s1 (configuration not stated),,inactive: -13.8% [at 9.22 µM]
O=C(O)c1ccc(-n2nnnc2SCc2ccccc2F)cc1,,inactive: -19.3%
Fc1ccc(-n2ncc3c(SCc4cccnc4)ncnc32)cc1,"inconclusive: 20 µM [inhibitor, single point]",
COc1cccc(-c2csc(NC(C)=O)n2)c1,"inconclusive: 6.31 µM [inhibitor, partial curve, poor fit]",
O=C(Nc1ccccc1C(=O)NCc1ccco1)Nc1cccc2ccccc12,"inconclusive: 22.4 µM [activator, single point]",
COc1cc(NC(=O)c2ccccc2NS(=O)(=O)c2ccc(Cl)s2)cc(OC)c1,active: 3.98 µM,
CSC1=NSC2=NC(=O)/C(=C\c3coc4ccccc4c3=O)C(=N)N12,,inactive: 16.4%
Fc1ccc(CSc2ncnc3nc[nH]c23)cc1,"inconclusive: 11.2 µM [inhibitor, single point]",
O=C(NCC1CCCO1)C1CC(c2ccc(Cl)c(Cl)c2)=NO1 (configuration not stated),"inconclusive: 25.1 µM [inhibitor, single point]",
COc1ccccc1Nc1ccc(C(=O)NC2CCCCC2)cn1,,inactive: -8.04%
Cc1cc(-c2sccc2C)nc(-n2cccc2)n1,"inconclusive: 3.55 µM [inhibitor, single point]",
Cc1nnc(SCCn2c(N3CCN(C)CC3)nc3c2c(=O)[nH]c(=O)n3C)s1,,inactive: -3.4%
CC(C(=O)Nc1ccccc1-c1ccccc1)N1CCN(Cc2ccccc2)CC1 (configuration not stated),,inactive: 17%
Cc1nnc2sc(SCc3cccc(Cl)c3)nn2c1=O,"inconclusive: 2.24 µM [activator, full curve]",
COc1ccc(/C=N/NC(=O)c2c(C)nc3ccccn23)cc1[N+](=O)[O-],,inactive: 1.19% [at 9.22 µM]
O=C1CC(c2ccccc2Cl)=NN(c2ncnc3ccccc23)C1=O,,inactive: -12.2%
Cc1ccc(S(=O)(=O)N2CCOCC(=O)NCCOCCNC(=O)COCC2)cc1,,inactive: 13.5%
COc1ccc(OC)c(CNC(=O)c2coc(=O)c3ccccc23)c1,"inconclusive: 35.5 µM [inhibitor, single point]",
